Earlier results as cited in paper PMC7697888, “Comprehensive Set of Tertiary Complex Structures and Palmitic Acid Binding Provide Molecular Insights into Ligand Design for RXR Isoforms” (International Journal of Molecular Sciences, 2020).

Parameters: method as in PMID 25675440
Conditions: young healthy Canadian adults; cited from earlier work
In the case of `CCCCCCCCCCCCCC(=O)O` [MA, myristic acid], the “maximum plasma concentration (endogenous)” value (from here on “maximum plasma concentration”) is listed as at most 0.3 mM.
For `CCCCCCCCCCCCCCCC(=O)O` [PA, palmitic acid], the “maximum plasma concentration” value is given as 4.0 mM.
For `CCCCCCCCCCCCCCCCCC(=O)O` [SA, stearic acid], the “maximum plasma concentration” value is given as “up to 1.0 mM”.
For `CCCCC/C=C\C/C=C\C/C=C\C/C=C\CCCC(=O)O` [arachidonic acid, reference compound], the “maximum plasma concentration” value is listed as 0.8 mM.
In the case of `CC/C=C\C/C=C\C/C=C\C/C=C\C/C=C\C/C=C\CCC(=O)O` [docosahexaenoic acid, reference compound], the “maximum plasma concentration” value is listed as 0.2 mM.
